Measurements reported in patent US10702487B2, “Pharmaceutical composition for prevention of diet induced obesity” (FRIMLINE PRIVATE LIMITED, priority 2017, dated 2020).

Columns and labels:
[1] = system: High fat diet induced obesity model in rat; experiment: High fat diet induced obesity model in rat: serum biochemistry; assay type: in vivo, Male Wistar Rats; settings: HFD-fed rats, 12 weeks, p.o.
Experimental: (§1) Screening anti-obesity effect of synergistic combination or composition/formulation comprising OEA and other natural ingredients using High fat diet induced obesity model in rat. […] To maintain appropriate conditions, temperature and relative humidity were recorded three times daily. During complete experiment, animals were supplied with the standard certified rat pellet feed (manufactured by VRK Nutritional Solutions, Pune) and drinking water treated by the reverse osmosis ad libitum. […] In order to evaluate the anti-obesity effect, forty-eight (48) male rats were screened and divided into eight groups. For a comparative analysis, the groups were divided as follows: normal control, disease control, treatment groups with individual component, reference standard drug and test composition/formulation of the present invention. […] The animals under consideration were examined for a study period of 12 weeks. Animals in group (G1) were given normal pellet diet, wherein the other groups were on high fat diet. After completion of study for 12 weeks, each group was analyzed in terms of the body weight and other evaluating parameters such as serum biochemistry (triglyceride, total cholesterol and low density lipoprotein cholesterol (LDL), analysis of liver homogenates and histopathology of liver. Obesity is essentially due to an excessive accumulation of the fatty tissues which leads to many diseases, not limited to insulin resistance, diabetes, fatty liver disease, coronary artery disease, hypertension and polycystic ovary syndrome. In obese conditions, the level of total cholesterol, triglyceride and LDL-cholesterol reaches beyond the normal ranges in human beings. Similarly, high fat diet model in rat is universally accepted model to test the efficacy of the drug for the treatment of obesity. In the above experimental procedure, obesity was induced by administration of a high fat diet (HFD) for the period of 12 weeks. For comparison, the normal control group animals were given a normal pellet diet, whereas the remaining groups were fed with the HFD. As a routine experiment, all animals' body weights were observed on weekly basis. Further, various serum biochemistry parameters such as Triglyceride, total cholesterol and LDL-cholesterol were analyzed at the end of the 12-week treatment period. In this regard, at the end of study period, all animals were euthanized and the liver was isolated. The liver homogenate of each individual animal was prepared and subjected for determination of the level of total cholesterol and Triglyceride. Further, part of the liver was used for histopathological investigation purpose.

[2] = system: High fat diet induced obesity model in rat; experiment: High fat diet induced obesity model in rat: analysis of liver homogenates; assay type: in vivo, Male Wistar Rats; settings: liver homogenate, HFD-fed rats, 12 weeks, p.o.
Experimental: as §1

CC(C)(CO)[C@@H](O)C(=O)NCCC(=O)NCCSSCCNC(=O)CCNC(=O)[C@H](O)C(C)(C)CO [Pantethine]
LDL ([1]; mean): 49.17 mg/dL
Total Cholesterol ([1]; mean): 135.54 mg/dL
Triglyceride ([1]; mean): 110.13 mg/dL
LDL % Decrease ([1]; versus disease control): 15.19%
Total Cholesterol % Decrease ([1]; versus disease control): 7.95%
Triglyceride % Decrease ([1]; versus disease control): 10.30%
Total Cholesterol ([2]; mean): 82.41 mg/dL
Triglyceride ([2]; mean): 75.22 mg/dL
Total Cholesterol % Decrease ([2]; versus disease control): 8.68%
Triglyceride % Decrease ([2]; versus disease control): 9.38%
